{"source": "patent US20110085970A1", "molecular_target": "T1, O8E (B7-H4) in normal mouse tissue (mouse) (UniProt Q7TSP5)", "T1 sequence (looked up)": "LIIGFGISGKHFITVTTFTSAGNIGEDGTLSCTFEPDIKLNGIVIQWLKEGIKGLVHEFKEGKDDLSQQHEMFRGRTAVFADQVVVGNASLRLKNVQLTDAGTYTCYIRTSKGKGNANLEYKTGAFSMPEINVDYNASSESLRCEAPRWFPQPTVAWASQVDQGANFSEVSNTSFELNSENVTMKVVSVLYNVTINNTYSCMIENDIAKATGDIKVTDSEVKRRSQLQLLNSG", "assay": "immunohistochemistry on a normal mouse tissue array", "note": "These are yes or no findings as the source states them, for the method shown. Some results given as binding are weak or reduced against the parent protein; the word gives no strength.", "data": [{"binder": "1G11 human monoclonal antibody (anti-O8E / anti-B7-H4) (antibody, V domains shown) VH: QVQLQQWGAGLLKPSETLSLTCAVYGGSFSDYFWTWIRQPPGKGLEWIGEINHSGTTNYNPSLKSRVTISADTSKNQFSLRLSSVTAADTAVYYCARLSSWSNWAFEYWGQGTLVTVSS VL: EIVLTQFPGTLSLSPGERATLSCRASQSVSSTYLAWYQQKPGQAPRVLIYGASRRATGIPDRFSGSGSGTDFTLTISRLEPEDFAVYYCQQYGSSPLTFGGGTKVEIK", "values": [{"measurement": "binding", "value": "binds"}]}]}
